Test results published in PubChem BioAssay AID588590 (National Center for Advancing Translational Sciences (NCATS), 2011).
Several values for one entry are separate records, joined by “and”; a condition that tells them apart may be missing. Identical values can stand only once. Out of some 390,000 compounds screened, about 4,000 (1%) were called active. This list was built around the results that the source calls inconclusive (neither active nor inactive); the mix of calls is not that of the screen. The call rests on the fitted dose curve; in most records, active means well fitted inhibition curve with a large enough effect; inconclusive means small, poorly fitted or top-dose-only effect, or another doubt; inactive means no such curve, though single readings can be large or run the other way. Where the call is inconclusive, the potency comes from a doubtful curve fit. Some structures have more than one record in an assay (separate samples or runs), and their calls can disagree.

The chains behind the UniProt entries cited, without tags or fusion partners. Where a name states a change or a piece, a line headed by the entry shows the natural chain unless it says otherwise.
UniProt Q9UNA4: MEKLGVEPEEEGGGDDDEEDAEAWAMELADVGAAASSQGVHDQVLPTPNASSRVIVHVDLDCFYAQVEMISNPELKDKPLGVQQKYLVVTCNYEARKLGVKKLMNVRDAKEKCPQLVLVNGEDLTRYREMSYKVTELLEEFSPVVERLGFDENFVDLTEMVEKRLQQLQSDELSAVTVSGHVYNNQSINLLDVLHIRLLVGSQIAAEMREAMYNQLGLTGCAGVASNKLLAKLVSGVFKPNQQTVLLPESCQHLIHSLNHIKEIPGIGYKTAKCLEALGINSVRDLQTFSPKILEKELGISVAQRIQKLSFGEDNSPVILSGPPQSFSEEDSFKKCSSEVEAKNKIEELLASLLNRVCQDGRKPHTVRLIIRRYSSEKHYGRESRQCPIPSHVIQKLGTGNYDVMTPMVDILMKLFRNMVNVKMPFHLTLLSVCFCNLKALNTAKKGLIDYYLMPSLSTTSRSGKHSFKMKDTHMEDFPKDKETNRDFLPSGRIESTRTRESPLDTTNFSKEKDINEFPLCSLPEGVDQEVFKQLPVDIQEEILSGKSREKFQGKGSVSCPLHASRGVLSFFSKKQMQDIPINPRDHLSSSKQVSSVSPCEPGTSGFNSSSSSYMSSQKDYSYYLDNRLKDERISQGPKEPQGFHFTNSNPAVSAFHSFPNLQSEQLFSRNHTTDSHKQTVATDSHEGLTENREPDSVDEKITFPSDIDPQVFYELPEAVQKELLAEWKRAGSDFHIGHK

Target: DNA polymerase iota (Homo sapiens) (UniProt Q9UNA4)
Experiment: qHTS for Inhibitors of Polymerase Iota
Details: Pol iota fluorescent replication assay, 10 min; series mostly up to 115 µM; activity, negative = inhibition: at the top concentration
Method in brief: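 Pol iota at 10 nM preincubated 15 min with compounds at room temperature; reaction started with fluorescent substrate, 50 nM final. Fluorescence read kinetically at 0 and 10 min; buffer-only wells as negative control.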
Potency means the concentration at half of the fitted maximal effect.

| SMILES | Potency | activity, negative = inhibition |
| --- | --- | --- |
| CN(C)c1ccc(/C=C/c2nc3ccccc3s2)cc1 | active: 89.1 µM |  |
| COc1ccc2c(c1OC)C(=O)N(C(C)C(=O)O)C2=O (stereo not given) | inconclusive: 100 µM [inhibitor, single point] |  |
| COc1cccc(OC)c1OCCN1CCN(C(c2ccccc2)c2ccccc2)CC1 | inconclusive: 22.4 µM [inhibitor, partial curve, poor fit] |  |
| Cc1cc2[nH]c(=O)c(=O)[nH]c2cc1S(=O)(=O)N1CCN(c2cccc(C(F)(F)F)c2)CC1 | inconclusive: 89.1 µM [inhibitor, single point] and inconclusive: 5.62 µM [inhibitor, full curve, poor fit] |  |
| CCOC(=O)NC(=O)c1cn(Nc2ncc(C(F)(F)F)cc2Cl)c(=O)[nH]c1=O | inconclusive: 79.4 µM [inhibitor, single point] |  |
| Cc1ccc(CCNS(=O)(=O)c2cc3c(cc2C)n(C)c(=O)c(=O)n3C)cc1 |  | inactive: -1.18% |
| CC(C)(C)c1cc(CCC(=O)NCCc2ccccn2)cc(C(C)(C)C)c1O |  | inactive: 121% |
| O=C(c1cccc(F)c1)N1CCc2ccccc21 | inconclusive: 89.1 µM [inhibitor, single point] |  |
| CC(NS(=O)(=O)CCNC(=O)c1ccccc1)c1ccccc1 (stereo not given) |  | inactive: 17.8% |
| COc1cc(/C=N/NC(=O)c2ccc(=O)[nH]n2)ccc1O | active: 100 µM |  |
| O=C(c1ccco1)N1CCN(c2ncccn2)CC1 |  | inactive: -9.51% |
| O=C(COC(=O)c1cc(Cl)cc(Cl)c1)NCc1ccco1 | inconclusive: 56.2 µM [inhibitor, partial curve, poor fit] |  |
| CN(c1ccc(OCC(=O)Nc2cc(Cl)ccc2C(=O)O)cc1)S(=O)(=O)c1ccc(F)cc1 | inconclusive: 56.2 µM [inhibitor, partial curve] |  |
| O=C(NCc1ccco1)/C(=C\c1cccs1)NC(=O)c1ccsc1 | inconclusive: 89.1 µM [inhibitor, partial curve, poor fit] |  |
| CCCCn1c(N)c(N(CC(C)C)C(=O)c2cc3c(s2)CCC3)c(=O)[nH]c1=O | inconclusive: 12.6 µM [inhibitor, partial curve, poor fit] |  |
| Cc1ccc(S(=O)(=O)Cc2sc3ccccc3[n+]2C)cc1 | inconclusive: 39.8 µM [inhibitor, single point] |  |
| CCC(CO)Oc1cc(NCc2ccccc2F)c2ncn(C(C)C)c2c1 (stereo not given) | inconclusive: 22.4 µM [inhibitor, single point] |  |
| CS(=O)(=O)Nc1ccc(-c2ccc(/C=C3\SC(N)=NC3=O)o2)cc1 | inconclusive: 10 µM [inhibitor, full curve, poor fit] |  |
| Cc1ccc(CNC(=O)CN2C(=O)CCn3nc(-c4ccccc4)cc32)cc1 | inconclusive: 0.631 µM [inhibitor, full curve, poor fit] |  |
| O=C(CCCN1C(=O)c2ccccc2C1=O)Nc1sc2c(c1C(=O)NCc1ccco1)CCC2 | inconclusive: 50.1 µM [inhibitor, partial curve, poor fit] |  |

| SMILES | Potency | activity, negative = inhibition |
| --- | --- | --- |
| CCOc1cc(/C=C/c2cccc[n+]2C)ccc1OCC(=O)Nc1ccc(C)cc1 | inconclusive: 56.2 µM [inhibitor, partial curve, poor fit] |  |
| COc1ccc2c(COC(=O)CC3Sc4ccccc4NC3=O)cc(=O)oc2c1 (stereo not given) | inconclusive: 14.1 µM [inhibitor, full curve, poor fit] |  |
| COCCN(C(=O)CCC(=O)Nc1cc(C)on1)C(C(=O)NC1CCCC1)c1ccccc1F (stereo not given) | inconclusive: 44.7 µM [inhibitor, partial curve, poor fit] |  |
| c1csc(Cc2nn3c(-c4n[nH]c5c4CCC5)nnc3s2)c1 | inconclusive: 3.16 µM [inhibitor, single point] |  |
| O=C(O)CSc1ncnc2c1sc1nc(-c3ccccc3)c3c(c12)CCC3 | inconclusive: 70.8 µM [inhibitor, partial curve, poor fit] |  |
| C[C@H](CO)N1C[C@H](C)[C@@H](CN(C)S(C)(=O)=O)Oc2ccc(NC(=O)NC3CCCCC3)cc2C1=O |  | inactive: 17% |
| CCOc1cc(/C=C2\SC(=S)N(C(C(=O)O)c3ccccc3)C2=O)ccc1O (stereo not given) | active: 28.2 µM |  |
| CCOC(=O)C1C(=O)C=C(/C=C/c2ccc(N(C)C)cc2)CC1c1ccccc1 (stereo not given) | inconclusive: 11.2 µM [inhibitor, partial curve] |  |
| CNc1nc(Sc2ccc(C)cc2)cc(C(F)(F)F)n1 |  | inactive: 6.44% |
| NS(=O)(=O)c1ccc(NC(=O)c2ccc(-c3ccccc3)cc2)cc1 | inconclusive: 1.41 µM [inhibitor, full curve, poor fit] |  |
| COc1ccc(S(=O)(=O)N2CCCOC2CNC(=O)C(=O)NCCc2ccco2)cc1OC (stereo not given) |  | inactive: -13.1% |
| CC(C)CC(=O)Nc1ccc2c(c1)nc(CCN1CCOCC1)n2C | inconclusive: 100 µM [inhibitor, single point] |  |
| CCCOc1ccc(C(=O)CCC(=O)OCC(=O)N(C)c2c(N)n(Cc3ccccc3)c(=O)[nH]c2=O)cc1 | inconclusive: 89.1 µM [inhibitor, single point] |  |
| CCOC(=O)c1c(C)oc2c1c(C=NCc1ccccn1)c(O)c1ccccc12 | inconclusive: 25.1 µM [inhibitor, partial curve, poor fit] |  |
| O=C(COc1ccc(F)cc1)N1CCC(c2ccccc2)C1 (stereo not given) | inconclusive: 141 µM [inhibitor, single point] |  |
| O=C(Nc1ccc(Br)c2ccccc12)c1ccc2ccccc2c1O | inconclusive: 5.01 µM [inhibitor, partial curve, poor fit] |  |
| CC(CCc1ccccc1)NC(=O)Cn1c(=O)nc(-c2ccccc2F)c2cc(Cl)ccc21 (stereo not given) | inconclusive: 89.1 µM [inhibitor, single point] |  |
| CCOc1ccc(NC(=O)CSc2nnc(-c3cc(C)[nH]n3)n2N)cc1 |  | inactive: 39% |
| O=C(/C=C/c1ccc([N+](=O)[O-])cc1)c1ccco1 | inconclusive: 3.16 µM [inhibitor, full curve] |  |
| CCOC(=O)Cn1c(=O)n(C2CCCCC2)c2nc(-c3ccc(OCC)cc3)nc(C(N)=O)c21 | inconclusive: 100 µM [inhibitor, partial curve, poor fit] |  |
